# Measurements reported in PubChem BioAssay AID720505 (Drosophila RNAi Screening Center, 2013).
# Screen: 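Fly regulators or components of the CRAC channel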 (primary screen)
# Cells: Drosophila S2R+ cells
# Reagent: long dsRNA against Drosophila genes
# Challenge: thapsigargin (2 µM) in calcium-free buffer to empty internal stores, then 2 mM calcium added back
# Detection: 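Stores emptied by 2 µM thapsigargin without calcium, then 2 mM calcium re-added; fluo-4 fluorescence followed by FLIPR in 384-well plates, per-well averaged endpoint, raw; two screen passes, some wells retested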
# Reading the numbers: calcium signal: higher = more calcium entry after store depletion
# Call rule: 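About 1500 genes called as lowering calcium entry, by varying amounts, judged against per-plate control wells with STIM1 as positive and Rho1 as negative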
# Calls: active = called as lowering calcium entry; inactive = not called
# The screen tested about 20,000 reagents; shown is a random part of those with a known target gene and a result. In the full data, about 2,100 (10%) were called active. 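Raw plate signals without normalisation; calls rest on control-based scores that were not deposited; replicate 2 separates called from uncalled poorly.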 Names joined by + are all predicted targets of the reagent. The record does not give: the amount of reagent, the time to read-out.
The opening 7 records as a preview:
predicted target,amplicon,"calcium signal, replicate 1","calcium signal, replicate 2",Call
CtsL1,DRSC05462,121,125,inactive
CtsL1,DRSC07363,165,185,inactive
RpS5b,DRSC16173,141,180,inactive
pdgy,DRSC19064,71.5,125,inactive
pdgy,DRSC19341,171,110,inactive
vsg,DRSC10219,105,107,inactive
CG12490,DRSC04123,137,188,inactive

Main list, from the start:
predicted target,amplicon,"calcium signal, replicate 1","calcium signal, replicate 2",Call
CtsL1,DRSC05462,121,125,inactive
CtsL1,DRSC07363,165,185,inactive
RpS5b,DRSC16173,141,180,inactive
pdgy,DRSC19064,71.5,125,inactive
pdgy,DRSC19341,171,110,inactive
vsg,DRSC10219,105,107,inactive
CG12490,DRSC04123,137,188,inactive
CG32985,DRSC02634,82.3,125,inactive
Cep135,DRSC10244,121,101,inactive
Drice,DRSC16715,120,119,inactive
CG12024,DRSC08229,61.2,185,active
CG32548,DRSC19627,99.4,116,inactive
CG32548,DRSC19982,184,139,inactive
CanA-14F,DRSC20211,71.9,117,active
CanA-14F,DRSC23296,171,152,inactive
CG12159,DRSC06114,119,113,inactive
CG3223,DRSC15468,122,228,inactive
CG15322,DRSC20680,194,109,inactive
CG15322,DRSC23023,93.8,117,inactive
IFT54,DRSC15469,97.3,125,inactive
Srrm1,DRSC09835,57.1,87.3,active
CG42826,DRSC10682,100,78.9,inactive
Rcd5,DRSC08180,126,101,inactive
Polr3B,DRSC07536,162,99.4,inactive
CG5435,DRSC02860,135,97.7,inactive
Or85f,DRSC16769,119,96.9,inactive
Ubc7,DRSC20299,60.8,120,active
Act5C,DRSC17723,208,128,inactive
CG32847,DRSC22901,84.5,161,inactive
stai,DRSC02920,166,79.7,inactive
stai,DRSC22235,82.9,185,inactive
CG9395,DRSC03218,76.1,124,inactive
Ssk,DRSC10756,126,141,inactive
CG14736,DRSC14956,110,82.2,inactive
PGAP2,DRSC00632,115,201,inactive
CG3164,DRSC00572,145,106,inactive
par-6,DRSC20359,195,154,inactive
CG14107,DRSC10110,98.8,85.7,inactive
SerT,DRSC04655,146,129,inactive
Mpp6,DRSC03169,68.8,167,inactive
CG32579,DRSC19872,95,141,inactive
CG11122,DRSC19382,99.2,77.2,inactive
PK2-R1,DRSC16447,164,208,inactive
CR31427,DRSC22675,80,101,inactive
Sec31,DRSC07131,115,131,inactive
Agpat1,DRSC19879,98.8,104,inactive
Agpat1,DRSC19880,75.9,110,inactive
Frq2,DRSC20245,116,118,inactive
CG13484,DRSC10026,53,101,inactive
Cdc6,DRSC10563,85.8,95.8,inactive
CG31715,DRSC21607,105,106,inactive
morgue,DRSC00264,146,220,inactive
Atg8a,DRSC18024,124,118,inactive
AcCoAS,DRSC11477,8458,136,inactive
AcCoAS,DRSC11603,49,99.1,active
AcCoAS,DRSC22850,81.9,103,inactive
CR30374,DRSC05080,123,138,inactive
CG5886,DRSC15908,100,91.2,inactive
CG3505,DRSC15489,154,124,inactive
CG5608,DRSC15841,95.3,125,inactive
CG44838,DRSC10330,99.4,97.2,inactive
CG44838,DRSC10371,95.6,103,inactive
CG43333,DRSC01917,93.6,155,inactive
CG43333,DRSC23265,139,106,inactive
CG3552,DRSC10370,69.3,94.6,inactive
Pxt,DRSC17040,63.4,103,active
RpL7,DRSC03417,99.7,96,inactive
Abcd3,DRSC19488,72.1,60.7,active
Ptp36E,DRSC03021,55.3,70.8,active
CG5969,DRSC11789,109,104,inactive
RpS5a,DRSC20282,75.3,96.1,active
nrv1,DRSC03382,98.2,150,inactive
CG30203,DRSC06690,142,160,inactive
CG4101,DRSC10400,80,154,inactive
CG15449,DRSC20521,183,86.4,inactive
grh,DRSC05680,90.9,101,inactive
grh,DRSC05683,136,112,inactive
grh,DRSC07624,169,106,inactive
grh,DRSC07625,122,129,inactive
CecA1,DRSC16603,74.2,120,active
CG43336,DRSC15765,93.9,129,inactive
CG1946,DRSC06804,134,209,inactive
Sec22 + CG13358,DRSC18538,130,170,inactive
